Measurements from publication doi:10.1101/2021.04.29.441967.
Results are given in words; binding and its absence hold for the method and conditions named. In cells and extracts the contact can be indirect. Some results given as binding are weak or reduced against the parent protein; the word gives no strength.

Sequences of proteins named here, by UniProt entry; tags and fusion partners are left off.
UniProt Q16659: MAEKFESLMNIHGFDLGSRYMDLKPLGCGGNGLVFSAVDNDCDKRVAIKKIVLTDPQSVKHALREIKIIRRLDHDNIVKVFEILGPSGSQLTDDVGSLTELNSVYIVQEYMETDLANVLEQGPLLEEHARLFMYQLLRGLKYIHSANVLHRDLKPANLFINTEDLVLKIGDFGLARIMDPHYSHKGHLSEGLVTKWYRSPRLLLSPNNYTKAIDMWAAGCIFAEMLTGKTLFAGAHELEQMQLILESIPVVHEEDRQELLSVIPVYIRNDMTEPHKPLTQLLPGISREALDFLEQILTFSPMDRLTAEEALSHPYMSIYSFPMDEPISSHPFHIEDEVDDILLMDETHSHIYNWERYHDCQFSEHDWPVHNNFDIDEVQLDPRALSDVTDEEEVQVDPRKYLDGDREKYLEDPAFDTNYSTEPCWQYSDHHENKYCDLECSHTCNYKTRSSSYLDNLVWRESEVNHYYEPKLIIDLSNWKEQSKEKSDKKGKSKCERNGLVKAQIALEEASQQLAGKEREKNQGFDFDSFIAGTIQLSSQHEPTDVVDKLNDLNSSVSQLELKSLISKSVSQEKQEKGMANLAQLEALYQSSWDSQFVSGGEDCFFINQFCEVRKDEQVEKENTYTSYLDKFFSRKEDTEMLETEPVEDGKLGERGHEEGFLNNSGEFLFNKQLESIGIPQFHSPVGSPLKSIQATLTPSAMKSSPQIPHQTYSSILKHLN
UniProt P10085: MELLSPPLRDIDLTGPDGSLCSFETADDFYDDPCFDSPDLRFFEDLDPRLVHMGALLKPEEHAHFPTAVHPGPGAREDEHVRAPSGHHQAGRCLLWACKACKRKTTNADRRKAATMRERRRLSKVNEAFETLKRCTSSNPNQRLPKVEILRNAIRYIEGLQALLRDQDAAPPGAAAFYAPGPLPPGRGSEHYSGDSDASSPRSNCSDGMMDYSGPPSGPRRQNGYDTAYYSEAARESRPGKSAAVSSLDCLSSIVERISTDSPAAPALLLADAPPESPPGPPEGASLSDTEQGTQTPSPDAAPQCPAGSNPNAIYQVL
UniProt Q8IW41: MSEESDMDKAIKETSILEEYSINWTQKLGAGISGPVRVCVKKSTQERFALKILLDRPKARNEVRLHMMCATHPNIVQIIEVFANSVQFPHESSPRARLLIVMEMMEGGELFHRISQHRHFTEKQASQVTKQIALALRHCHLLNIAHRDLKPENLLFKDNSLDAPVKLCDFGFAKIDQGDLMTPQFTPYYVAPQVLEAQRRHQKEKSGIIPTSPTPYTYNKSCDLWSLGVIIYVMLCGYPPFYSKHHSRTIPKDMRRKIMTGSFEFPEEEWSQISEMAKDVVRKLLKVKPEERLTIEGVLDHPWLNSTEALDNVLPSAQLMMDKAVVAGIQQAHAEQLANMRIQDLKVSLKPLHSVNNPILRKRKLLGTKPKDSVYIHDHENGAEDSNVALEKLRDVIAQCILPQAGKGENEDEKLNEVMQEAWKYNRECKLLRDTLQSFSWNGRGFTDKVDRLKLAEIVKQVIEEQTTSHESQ
UniProt Q9WVH4: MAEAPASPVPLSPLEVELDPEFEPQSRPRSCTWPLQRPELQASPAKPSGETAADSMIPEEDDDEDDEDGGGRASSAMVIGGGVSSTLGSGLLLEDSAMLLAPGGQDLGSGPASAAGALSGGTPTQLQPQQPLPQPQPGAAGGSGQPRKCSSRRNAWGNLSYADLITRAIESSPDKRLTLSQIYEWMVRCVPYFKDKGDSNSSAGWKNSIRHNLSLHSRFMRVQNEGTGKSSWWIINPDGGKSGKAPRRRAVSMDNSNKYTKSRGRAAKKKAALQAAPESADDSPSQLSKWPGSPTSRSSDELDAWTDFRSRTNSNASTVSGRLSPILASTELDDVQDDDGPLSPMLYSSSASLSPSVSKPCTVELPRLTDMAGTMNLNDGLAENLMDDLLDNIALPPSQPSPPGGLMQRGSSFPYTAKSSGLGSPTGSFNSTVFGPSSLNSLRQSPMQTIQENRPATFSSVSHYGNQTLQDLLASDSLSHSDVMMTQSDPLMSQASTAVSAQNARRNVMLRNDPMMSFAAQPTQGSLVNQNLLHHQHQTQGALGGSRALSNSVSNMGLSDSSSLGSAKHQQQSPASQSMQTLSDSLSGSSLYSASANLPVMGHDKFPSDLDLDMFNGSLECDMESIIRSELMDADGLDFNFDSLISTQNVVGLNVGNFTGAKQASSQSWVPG

Tests used:
Assay in all cases: co-IP
[1] = molecular target: Myc6-ERK3-Flag (Extracellular Signal-Regulated Kinase 3) (UniProt Q16659)
MyoD = MyoD (UniProt P10085)
[2] = molecular target: MK5-Flag (MAPK-activated protein kinase 5) (UniProt Q8IW41)

## MK5-HA (MAPK-activated protein kinase 5) (from UniProt Q8IW41 1-473) (enzyme)
[1]
  binding: binds

## FoxO3-Myc (from UniProt Q9WVH4 1-672)
MyoD
  binding: binds
[2]
  binding: binds
